The source of these data is paper PMC11535055, “ER-phagy restrains inflammatory responses through its receptor UBAC2” (The EMBO Journal, 2024).

The chains behind the UniProt entries cited, without tags or fusion partners. Where a name states a change or a piece, a line headed by the entry shows the natural chain unless it says otherwise.
UniProt Q8NBM4: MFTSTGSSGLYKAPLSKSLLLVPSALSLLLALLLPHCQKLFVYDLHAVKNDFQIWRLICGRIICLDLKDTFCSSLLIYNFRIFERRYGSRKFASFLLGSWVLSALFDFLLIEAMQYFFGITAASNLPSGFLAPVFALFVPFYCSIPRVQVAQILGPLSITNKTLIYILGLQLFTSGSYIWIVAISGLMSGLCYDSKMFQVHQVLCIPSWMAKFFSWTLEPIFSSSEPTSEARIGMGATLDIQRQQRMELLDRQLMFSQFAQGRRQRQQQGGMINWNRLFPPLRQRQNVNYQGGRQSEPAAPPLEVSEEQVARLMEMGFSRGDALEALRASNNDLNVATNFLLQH
UniProt O95166: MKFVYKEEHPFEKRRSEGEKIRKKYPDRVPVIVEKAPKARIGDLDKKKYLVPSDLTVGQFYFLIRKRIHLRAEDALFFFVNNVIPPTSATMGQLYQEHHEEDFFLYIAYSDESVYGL
UniProt Q7KZI7: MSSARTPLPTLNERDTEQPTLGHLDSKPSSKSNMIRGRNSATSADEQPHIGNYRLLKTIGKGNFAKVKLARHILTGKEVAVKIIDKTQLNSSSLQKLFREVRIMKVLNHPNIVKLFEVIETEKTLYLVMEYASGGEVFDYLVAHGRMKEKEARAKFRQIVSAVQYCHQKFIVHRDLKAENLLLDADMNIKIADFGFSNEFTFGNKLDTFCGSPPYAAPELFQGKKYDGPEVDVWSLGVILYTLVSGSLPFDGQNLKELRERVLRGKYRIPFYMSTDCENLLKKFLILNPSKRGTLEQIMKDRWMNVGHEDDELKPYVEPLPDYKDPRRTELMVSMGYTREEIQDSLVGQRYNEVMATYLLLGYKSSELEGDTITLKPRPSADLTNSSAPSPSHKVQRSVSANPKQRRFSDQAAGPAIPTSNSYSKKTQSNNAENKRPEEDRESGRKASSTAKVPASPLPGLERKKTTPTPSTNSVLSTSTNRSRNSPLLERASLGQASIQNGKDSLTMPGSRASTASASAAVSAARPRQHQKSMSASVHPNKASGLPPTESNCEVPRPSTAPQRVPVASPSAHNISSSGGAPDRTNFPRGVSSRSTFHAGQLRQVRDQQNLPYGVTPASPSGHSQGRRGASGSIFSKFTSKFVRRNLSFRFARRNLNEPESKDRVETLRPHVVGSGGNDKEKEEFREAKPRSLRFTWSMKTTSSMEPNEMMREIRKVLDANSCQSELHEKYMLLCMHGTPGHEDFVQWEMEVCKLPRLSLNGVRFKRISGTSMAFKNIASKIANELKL

Assay [1] deals with His-GFP-UBAC2, wild type (human) (UniProt Q8NBM4). The assay can be described thus: pull-down; His-GFP-UBAC2 incubated with His-GABARAP (WT or mutants) in reaction buffer in vitro; pull-down with GFP-beads, immunoblot; both purified. (In general: Immunoblotting shows a protein as a band on a membrane.)
Assay [2] shares this target. Nature of the assay: pull-down; His-GFP-UBAC2 purified from E. coli incubated with Flag-MARK2 (purified from 293T) in reaction buffer in vitro, then immunoprecipitated and immunoblotted; precipitating antibody not told; both purified.

No constants are given. Whether binding was seen depends on the method and setting. Binding calls can cover weak binding; strength is not graded here.

For the substance “His-GABARAP, wild type (from UniProt O95166 1-117)”, in assay [1], the binding result was “binds”.

For the substance “Flag-MARK2 (from UniProt Q7KZI7 1-788) (enzyme)”, the binding result in assay [2] was “binds”.
